Measured values: PubChem BioAssay AID743255 (National Center for Advancing Translational Sciences (NCATS), 2014)
Screen size: about 390,000 compounds; about 910 (0.23%) were called active. Inconclusive means that the source gave no clear call. Such entries were picked first, then a sample of the others. Calls follow the shape of the dose curve; as a rule, active = well fitted inhibition curve with a large enough effect; inconclusive = small, poorly fitted or top-dose-only effect; inactive = no such curve, though single readings can be large or run the other way. Potencies of inconclusive entries are doubtful fits and often do not repeat.

Chains of the proteins cited; added tags and fusions are not shown. Lines headed by an entry give the natural chain unless they say otherwise; changes in a name come on top.
UniProt O94782: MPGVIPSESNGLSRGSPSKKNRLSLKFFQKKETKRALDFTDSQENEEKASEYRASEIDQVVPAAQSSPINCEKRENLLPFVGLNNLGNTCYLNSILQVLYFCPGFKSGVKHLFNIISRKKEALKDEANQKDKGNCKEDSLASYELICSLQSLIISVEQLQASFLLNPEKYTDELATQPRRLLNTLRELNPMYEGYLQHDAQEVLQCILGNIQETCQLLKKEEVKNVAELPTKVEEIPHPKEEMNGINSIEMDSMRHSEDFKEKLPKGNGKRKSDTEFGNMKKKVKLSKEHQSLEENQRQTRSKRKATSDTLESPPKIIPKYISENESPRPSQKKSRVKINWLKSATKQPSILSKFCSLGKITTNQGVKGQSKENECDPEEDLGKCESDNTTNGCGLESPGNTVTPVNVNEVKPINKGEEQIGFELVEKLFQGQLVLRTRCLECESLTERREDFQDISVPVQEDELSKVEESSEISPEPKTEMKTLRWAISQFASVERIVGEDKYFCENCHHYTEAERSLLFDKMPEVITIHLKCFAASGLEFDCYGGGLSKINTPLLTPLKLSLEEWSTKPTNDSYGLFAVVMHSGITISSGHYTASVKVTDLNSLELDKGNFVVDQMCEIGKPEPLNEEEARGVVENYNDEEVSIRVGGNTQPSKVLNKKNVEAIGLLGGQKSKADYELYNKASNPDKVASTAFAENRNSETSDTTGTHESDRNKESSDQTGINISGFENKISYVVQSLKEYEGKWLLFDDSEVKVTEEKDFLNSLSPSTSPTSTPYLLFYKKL

target: Ubiquitin carboxyl-terminal hydrolase 1 (Homo sapiens) (UniProt O94782); test: Inhibitors of USP1/UAF1: Primary Screen; conditions: recombinant USP1/UAF1, Ub-Rhodamine cleavage fluorescence; activity change, negative = inhibition: at 57.1 µM (top of the series); also: nearly all actives have a fitted effect of over 60% in size
Procedure, shortened: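 Step one: compound is pinned into 1nM USP1/UAF1 in HEPES pH 7.8 buffer with TCEP. Step two: 15 min room-temperature incubation. Step three: Ub-Rho (150nM final) starts cleavage, tracked by fluorescence over six one-minute reads.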
% is scaled to controls: 0 for no effect and ±100 for the full control effect; potency is read from the fitted curve at half-maximal effect.

SMILES	activity change, negative = inhibition	Potency
O=C1/C(=C/c2ccco2)Cc2ccccc21	inactive: -8.93%	–
Cn1c(N)c(C(=O)CSc2nnc(C3CC3)n2-c2ccccc2)c(=O)[nH]c1=O	–	inconclusive: 3.16 µM [inhibitor, full curve, poor fit]
CCN(CC)C(=O)c1[nH]cnc1C(=O)NCc1ccc(CNC(=O)OC(C)(C)C)cc1	–	inconclusive: 50.1 µM [inhibitor, partial curve, poor fit]
CCCC[n+]1c(C)sc2ccc(C)cc21	inactive: -17.3%	–
COc1ccc(-n2c(C)cc(/C=C3\SC(=S)NC3=O)c2C)cc1	inactive: -5.31%	–
COC(=O)c1[nH]c2cc(OC)c(OC)cc2c1NC(=O)CN1C[C@H]2C[C@@H](C1)c1cccc(=O)n1C2	inactive: -27.7%	–
N#Cc1ccc(S(=O)(=O)N2CCc3[nH]c4ccc(F)cc4c3C2)cc1	–	inconclusive: 35.5 µM [inhibitor, partial curve]
Cc1oc2ccc(O)c(CN3CCOCC3)c2c1C(=O)Nc1ccccc1	–	inconclusive: 7.08 µM [inhibitor, full curve]
Cc1ccc(CNc2ccc(-c3nc(C(C)C)no3)cc2[N+](=O)[O-])cc1	–	inconclusive: 50.1 µM [inhibitor, partial curve, poor fit]
CN1CCc2c(sc(/N=C/c3cc(C(C)(C)C)ccc3O)c2C#N)C1	–	inconclusive: 50.1 µM [inhibitor, partial curve, poor fit]
COc1ccc(N(CC(O)Cn2nnc3ccccc32)S(=O)(=O)c2ccc(C)cc2)cc1 (stereo not given)	–	inconclusive: 3.16 µM [inhibitor, partial curve]
COc1cc(NCCCCCCCN)c2ncccc2c1	–	inconclusive: 2.82 µM [inhibitor, full curve, poor fit]
Cc1ccc(C)c(N(CC(=O)NC2CCCC2)C(=O)c2cc3cc4cc(C)ccc4nc3s2)c1	–	inconclusive: 0.355 µM [inhibitor, full curve, poor fit]
CCC(C)Sc1ccc([C@@H]2[C@@H]3C(=O)N(C)C(=O)[C@@H]3[C@]3(C(=O)OC)CCCCN23)cc1 (stereo not given in full)	–	inconclusive: 50.1 µM [inhibitor, partial curve, poor fit]
CCCCC(=O)Nc1cc(C)c(O)c(-c2nc3ncccc3o2)c1	–	inconclusive: 7.94 µM [inhibitor, single point]
CC(C)(C)Cc1nnc(NC(=O)Cc2ccc([N+](=O)[O-])cc2)s1	inactive: -21.7%	–
Cc1ccc(-n2c(C)cc(C(=O)CN3CCCCC3)c2C)cc1	–	inconclusive: 5.01 µM [inhibitor, partial curve]
CCOC(=O)Nc1ccc(C)cc1NC(=O)OCC	inactive: -13.9%	–
O=c1cc(CO)oc(C(Nc2cccc(C(F)(F)F)c2)c2ccccn2)c1O (stereo not given)	–	inconclusive: 31.6 µM [inhibitor, partial curve]
N#Cc1cc(NC2CCCC2)c([N+](=O)[O-])cc1C#N	–	inconclusive: 31.6 µM [inhibitor, single point]

Gathered by group, the compounds so far containing nitrogen in an aromatic ring (14)
SMILES	activity change, negative = inhibition	Potency
Cn1c(N)c(C(=O)CSc2nnc(C3CC3)n2-c2ccccc2)c(=O)[nH]c1=O	–	inconclusive: 3.16 µM [inhibitor, full curve, poor fit]
CCN(CC)C(=O)c1[nH]cnc1C(=O)NCc1ccc(CNC(=O)OC(C)(C)C)cc1	–	inconclusive: 50.1 µM [inhibitor, partial curve, poor fit]
CCCC[n+]1c(C)sc2ccc(C)cc21	inactive: -17.3%	–
COc1ccc(-n2c(C)cc(/C=C3\SC(=S)NC3=O)c2C)cc1	inactive: -5.31%	–
COC(=O)c1[nH]c2cc(OC)c(OC)cc2c1NC(=O)CN1C[C@H]2C[C@@H](C1)c1cccc(=O)n1C2	inactive: -27.7%	–
N#Cc1ccc(S(=O)(=O)N2CCc3[nH]c4ccc(F)cc4c3C2)cc1	–	inconclusive: 35.5 µM [inhibitor, partial curve]
Cc1ccc(CNc2ccc(-c3nc(C(C)C)no3)cc2[N+](=O)[O-])cc1	–	inconclusive: 50.1 µM [inhibitor, partial curve, poor fit]
COc1ccc(N(CC(O)Cn2nnc3ccccc32)S(=O)(=O)c2ccc(C)cc2)cc1 (stereo not given)	–	inconclusive: 3.16 µM [inhibitor, partial curve]
COc1cc(NCCCCCCCN)c2ncccc2c1	–	inconclusive: 2.82 µM [inhibitor, full curve, poor fit]
Cc1ccc(C)c(N(CC(=O)NC2CCCC2)C(=O)c2cc3cc4cc(C)ccc4nc3s2)c1	–	inconclusive: 0.355 µM [inhibitor, full curve, poor fit]
CCCCC(=O)Nc1cc(C)c(O)c(-c2nc3ncccc3o2)c1	–	inconclusive: 7.94 µM [inhibitor, single point]
CC(C)(C)Cc1nnc(NC(=O)Cc2ccc([N+](=O)[O-])cc2)s1	inactive: -21.7%	–
Cc1ccc(-n2c(C)cc(C(=O)CN3CCCCC3)c2C)cc1	–	inconclusive: 5.01 µM [inhibitor, partial curve]
O=c1cc(CO)oc(C(Nc2cccc(C(F)(F)F)c2)c2ccccn2)c1O (stereo not given)	–	inconclusive: 31.6 µM [inhibitor, partial curve]

Rewritten with bars between the fields: 2 of the compounds above
SMILES | activity change, negative = inhibition | Potency
CCCC[n+]1c(C)sc2ccc(C)cc21 | inactive: -17.3% | –
COc1ccc(-n2c(C)cc(/C=C3\SC(=S)NC3=O)c2C)cc1 | inactive: -5.31% | –

Further records follow.

SMILES	activity change, negative = inhibition	Potency
CCC(CC)C(=O)Nc1cc(-c2cccc(C)c2)nn1-c1ccccc1	–	inconclusive: 39.8 µM [inhibitor, partial curve, poor fit]
CC(C)CC(=O)Nc1nnc(S(=O)(=O)N2CCCCCC2)s1	–	inactive
Nc1ccc(N2CCCCC2)c(Cl)c1	–	inconclusive: 0.355 µM [inhibitor, full curve]
Cc1ccc(Cl)cc1Nc1nc2ccccc2c2nncn12	–	inconclusive: 14.1 µM [inhibitor, partial curve]
COc1ccc(-c2nc3cc(NC(=O)Cc4ccc(Cl)cc4)ccc3o2)cc1OC	–	inconclusive: 0.282 µM [inhibitor, full curve, poor fit]
CCOc1ccc(C(=O)Nc2cc(NC(=O)c3ccco3)ccc2OC)cc1Br	inactive: -29.5%	–
CC(=O)OC1CCC2(C)C(CCC3C2CC(=O)C2(C)C3CC(C(C(C)=O)C(C)=O)C2C(C)=O)C1 (stereo not given)	–	inconclusive: 44.7 µM [inhibitor, partial curve, poor fit]
Cc1occc1C(=O)N/N=C/C=C/c1ccc(N(C)C)cc1	inactive: -15%	–
Cc1nn(Cc2ccc(Cl)c(Cl)c2)c(C)c1NC(=O)c1cc(C2CC2)on1	–	inconclusive: 1.58 µM [inhibitor, full curve, poor fit]
Cc1cc(C)c2nc(SCC(=O)NNC(=O)c3ccco3)c(C)cc2c1	–	inconclusive: 7.08 µM [inhibitor, full curve, poor fit]
O=C(Nc1ccccc1O)c1ccccc1O	inactive: -8.48%	–
CC(=O)Nc1ccc(NC(=O)CSc2ncc(C(=O)Nc3ccc(F)cc3)c(=O)n2C)cc1	inactive: -9.65%	–
Oc1ccc(-c2nc3ccccn3c2NCc2ccc3c(c2)OCO3)cc1	inactive: -3.99%	–
COCCN=c1scc(-c2ccco2)n1/N=C/c1ccc(O)c(O)c1O	–	inconclusive: 14.1 µM [inhibitor, partial curve, poor fit]
Cc1ccc(NC(=O)CN2C(=O)CCc3cc(S(=O)(=O)N4CCOCC4)ccc32)cc1N(C)C	–	inconclusive: 79.4 µM [inhibitor, partial curve, poor fit]
CC(C)NC(=O)N(C)C[C@H]1Oc2cc(Br)ccc2S(=O)(=O)N([C@H](C)CO)C[C@H]1C	–	inconclusive: 0.282 µM [inhibitor, full curve]
O=C(CCc1nc2cccnc2n1Cc1cccs1)Nc1cccc(C(F)(F)F)c1	–	inconclusive: 39.8 µM [inhibitor, partial curve]
CCCCCCSc1cccc(-c2nc3ccc(Cl)cn3c2NCc2ccccc2)c1	inactive: -16.8%	–
O=c1c2ccccc2sn1-c1ccccc1F	inactive: 5.68%	–
COc1cccc(C(=O)Nc2ccccc2NC(=O)c2cccc(OC)c2)c1	–	inconclusive: 35.5 µM [inhibitor, single point]

SMILES	activity change, negative = inhibition	Potency
O=[N+]([O-])c1cc(NCCO)c(N2CCCCCC2)c2nonc12	–	inconclusive: 2.51 µM [inhibitor, full curve]
CCOc1cccc(/C=C/c2ccc3ccccc3n2)c1OC(C)=O	–	inconclusive: 25.1 µM [inhibitor, partial curve]
CC1=C(C(=O)OCc2ccccc2)C(c2ccccc2Cl)NC(=O)N1CCCC(=O)O (stereo not given)	inactive: -27.2%	–
COc1ccc(N(CC(=O)NCc2ccc(F)cc2)S(=O)(=O)c2c(C)noc2C)cc1	–	inconclusive: 3.16 µM [inhibitor, full curve, poor fit]
Cc1c(O)ccc2cc(S(=O)(=O)c3ccccc3)c(=O)oc12	inactive: -16.1%	–
O=c1c(OC2OC(CO)C(O)C(O)C2OC2OC(CO)C(O)C(O)C2O)c(-c2ccc(O)cc2)oc2cc(O)cc(O)c12 (stereo not given)	–	inconclusive: 12.6 µM [inhibitor, partial curve, poor fit]
CCOC(=O)C(Nc1ccc2ccccc2c1)C(=O)OCC	–	inconclusive: 35.5 µM [inhibitor, partial curve]
O=C(COC(=O)c1ccc([N+](=O)[O-])s1)c1ccc[nH]1	–	inconclusive: 31.6 µM [inhibitor, single point]
O=C(O)c1cccc(S(=O)(=O)Nc2ccccc2-c2ccccc2)c1	inactive: -15.8%	–
COc1cccc(C(=O)NCCSc2c(C)[nH]c3ccccc23)c1OC	–	inconclusive: 39.8 µM [inhibitor, partial curve]
CCc1nonc1NC(=O)c1oc2ccc(F)cc2c1C	–	inconclusive: 6.31 µM [inhibitor, single point]
O=C(Nc1cccc(Cl)c1)Nc1ccc(Br)cc1F	inactive: -18.8%	–
CCCCNS(=O)(=O)c1ccc2nc(SCC(=O)Nc3cccc(F)c3)[nH]c2c1	inactive: -19.5%	–
CCOC(=O)/C=C1/SCC(=O)N1CC(=O)Nc1ccccc1OC(F)F	–	inconclusive: 28.2 µM [inhibitor, partial curve]
O=C(NC1CCN(Cc2ccccc2)CC1)c1cccc(S(=O)(=O)Nc2ccc(F)cc2)c1	inactive: -5.29%	–
Nc1nc(SCc2ccccc2[N+](=O)[O-])c2ncn(Cc3ccccc3)c2n1	–	inconclusive: 0.355 µM [inhibitor, full curve, poor fit]
Cc1ccc(/C=N/NC(=O)c2ccc(NC(=O)c3ccccc3Cl)cc2)o1	inactive: -19.1%	–
Cn1c(=O)n(C/C=C/c2ccccc2)c(=O)c2c1nc1n2CCN1c1ccc(F)cc1	inactive: -9.63%	–
COc1ccc(S(=O)(=O)NCCc2sc(C)nc2C)cc1F	–	inconclusive: 0.178 µM [inhibitor, full curve, poor fit]
COc1ccc(/C=N/NC(=O)c2ccc(C)cc2)cc1CN1CCN(c2ccc(F)cc2)CC1	inactive: -2.43%	–
